Consider seven molecules from article doi:10.1101/2024.01.08.574726.

These are yes or no findings as the source states them, for the method shown. For some of these results: Binding can be weak; no strength is given. For some of these results: Tags and fused reporters may be left off the sequences shown. For some of these results: In cells and extracts the contact can be indirect.

Assay [1] concerns the target T1, ARC3_(41-741), partner of AD-ARC6 derivatives in the two-hybrid (Arabidopsis thaliana) (UniProt Q6F6B5).
T1 sequence: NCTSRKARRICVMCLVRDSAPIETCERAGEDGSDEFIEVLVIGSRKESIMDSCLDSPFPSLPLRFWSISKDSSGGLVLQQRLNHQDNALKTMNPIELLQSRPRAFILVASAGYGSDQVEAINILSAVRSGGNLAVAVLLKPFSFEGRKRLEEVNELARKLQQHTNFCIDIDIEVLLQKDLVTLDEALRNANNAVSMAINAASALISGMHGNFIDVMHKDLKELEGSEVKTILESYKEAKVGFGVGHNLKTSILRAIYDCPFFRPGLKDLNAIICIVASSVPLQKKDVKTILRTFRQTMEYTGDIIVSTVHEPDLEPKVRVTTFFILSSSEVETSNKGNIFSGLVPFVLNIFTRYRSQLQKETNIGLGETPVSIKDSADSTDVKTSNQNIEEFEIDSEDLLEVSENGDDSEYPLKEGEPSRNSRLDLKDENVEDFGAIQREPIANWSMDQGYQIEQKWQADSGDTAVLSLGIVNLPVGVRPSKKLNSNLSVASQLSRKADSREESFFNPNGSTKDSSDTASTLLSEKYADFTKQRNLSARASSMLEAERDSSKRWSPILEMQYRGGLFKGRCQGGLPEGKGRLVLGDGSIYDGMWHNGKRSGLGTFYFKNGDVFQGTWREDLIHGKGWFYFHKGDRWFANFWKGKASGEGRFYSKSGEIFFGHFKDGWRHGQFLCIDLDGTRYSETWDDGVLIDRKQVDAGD
Put plainly: two-hybrid.

In assay [2] the target is T2, ARC3_(598-741) (Arabidopsis thaliana) (UniProt Q6F6B5).
T2 sequence: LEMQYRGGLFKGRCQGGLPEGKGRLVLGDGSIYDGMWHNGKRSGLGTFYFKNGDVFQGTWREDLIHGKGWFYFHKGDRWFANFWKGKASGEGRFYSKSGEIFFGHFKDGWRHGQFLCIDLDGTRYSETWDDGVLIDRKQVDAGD
Put plainly: two-hybrid.

Assay [3] addresses T3, ARC3_(41-598), partner of AD-ARC6 derivatives in the two-hybrid (Arabidopsis thaliana) (UniProt Q6F6B5).
T3 sequence: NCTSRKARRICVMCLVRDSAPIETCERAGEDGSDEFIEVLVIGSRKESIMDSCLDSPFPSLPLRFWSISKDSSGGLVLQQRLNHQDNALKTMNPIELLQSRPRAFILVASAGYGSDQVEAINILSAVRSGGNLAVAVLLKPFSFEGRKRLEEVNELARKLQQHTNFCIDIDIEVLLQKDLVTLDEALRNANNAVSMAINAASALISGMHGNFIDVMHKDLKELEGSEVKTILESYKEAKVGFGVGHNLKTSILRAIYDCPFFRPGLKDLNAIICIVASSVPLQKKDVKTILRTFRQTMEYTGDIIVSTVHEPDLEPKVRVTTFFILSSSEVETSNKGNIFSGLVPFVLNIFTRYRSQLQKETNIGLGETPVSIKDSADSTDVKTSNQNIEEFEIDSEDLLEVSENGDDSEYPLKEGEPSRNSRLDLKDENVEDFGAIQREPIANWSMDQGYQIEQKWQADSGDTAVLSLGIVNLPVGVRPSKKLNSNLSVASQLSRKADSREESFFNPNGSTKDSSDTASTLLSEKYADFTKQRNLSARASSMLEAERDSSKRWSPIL
Put plainly: two-hybrid.

Assay [4] has as its target T4, ARC6-eGFP (Arabidopsis thaliana) (UniProt Q9FIG9).
T4 sequence: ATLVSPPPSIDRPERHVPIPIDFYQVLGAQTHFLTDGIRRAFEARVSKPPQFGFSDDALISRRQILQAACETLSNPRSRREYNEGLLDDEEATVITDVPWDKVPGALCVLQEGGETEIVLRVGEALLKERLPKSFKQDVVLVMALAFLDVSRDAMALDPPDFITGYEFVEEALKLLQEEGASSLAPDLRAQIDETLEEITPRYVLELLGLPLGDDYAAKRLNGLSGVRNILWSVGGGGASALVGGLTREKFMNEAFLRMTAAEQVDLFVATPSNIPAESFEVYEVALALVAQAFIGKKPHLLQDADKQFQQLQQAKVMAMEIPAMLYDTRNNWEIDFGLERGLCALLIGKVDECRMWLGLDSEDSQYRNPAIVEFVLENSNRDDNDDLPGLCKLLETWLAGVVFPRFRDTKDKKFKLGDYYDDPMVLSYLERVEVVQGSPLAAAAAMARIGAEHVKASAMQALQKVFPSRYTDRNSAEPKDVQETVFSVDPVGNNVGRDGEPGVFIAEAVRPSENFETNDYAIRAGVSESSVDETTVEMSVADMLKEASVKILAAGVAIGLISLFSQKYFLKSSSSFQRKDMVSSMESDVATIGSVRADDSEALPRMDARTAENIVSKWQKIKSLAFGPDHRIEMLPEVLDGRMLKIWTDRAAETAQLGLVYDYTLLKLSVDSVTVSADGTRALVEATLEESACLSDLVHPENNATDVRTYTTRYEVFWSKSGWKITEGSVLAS
Put plainly: co-IP.

In assay [5] the target is T5, ARC6TP-NLuc-ARC6 (Arabidopsis thaliana) (UniProt Q9FIG9).
T5 sequence: T4 sequence
Put plainly: split reporter.

The target of assay [6] is BD-FtsZ2 (Arabidopsis thaliana). As to the kind of experiment: two-hybrid.
Another assay has as its target AtDjA24. Put plainly: two-hybrid.
Assay [7] addresses ARC3_(Δ630-675) (Arabidopsis thaliana). As to the kind of experiment: two-hybrid.

As to “ARC6_(ΔPPQ) (from UniProt Q9FIG9) (domain or fragment)”, the binding entry in assay [1], in assay [2] and in assay [3] was “binds” throughout.

For FtsZ2-6×HA (Arabidopsis thaliana), in assay [4], the binding result is listed as “binds”.

For FtsZ2-CLuc (Arabidopsis thaliana), the binding result in assay [5] is “binds”.

B1: ARC6_(ΔJLD) (domain or fragment, UniProt Q9FIG9)
chain: ATLVSPPPSIDRPERHVPIPILDDEEATVITDVPWDKVPGALCVLQEGGETEIVLRVGEALLKERLPKSFKQDVVLVMALAFLDVSRDAMALDPPDFITGYEFVEEALKLLQEEGASSLAPDLRAQIDETLEEITPRYVLELLGLPLGDDYAAKRLNGLSGVRNILWSVGGGGASALVGGLTREKFMNEAFLRMTAAEQVDLFVATPSNIPAESFEVYEVALALVAQAFIGKKPHLLQDADKQFQQLQQAKVMAMEIPAMLYDTRNNWEIDFGLERGLCALLIGKVDECRMWLGLDSEDSQYRNPAIVEFVLENSNRDDNDDLPGLCKLLETWLAGVVFPRFRDTKDKKFKLGDYYDDPMVLSYLERVEVVQGSPLAAAAAMARIGAEHVKASAMQALQKVFPSRYTDRNSAEPKDVQETVFSVDPVGNNVGRDGEPGVFIAEAVRPSENFETNDYAIRAGVSESSVDETTVEMSVADMLKE
As for B1, the binding result in assay [6] is reported as “binds”.

B2: ARC3_(41-598), partner of the BD-FtsZ proteins in the two-hybrid (domain or fragment, UniProt Q6F6B5 41-598)
chain: T3 sequence
As to B2, in assay [6], the binding entry is “binds”.

B3: cpHsp70-1 (protein, UniProt Q9STW6 1-718)
chain: MASSAAQIHVLGGIGFASSSSSKRNLNGKGGTFMPRSAFFGTRTGPFSTPTSAFLRMGTRNGGGASRYAVGPVRVVNEKVVGIDLGTTNSAVAAMEGGKPTIVTNAEGQRTTPSVVAYTKSGDRLVGQIAKRQAVVNPENTFFSVKRFIGRKMNEVDEESKQVSYRVVRDENNNVKLECPAINKQFAAEEISAQVLRKLVDDASRFLNDKVTKAVITVPAYFNDSQRTATKDAGRIAGLEVLRIINEPTAASLAYGFDRKANETILVFDLGGGTFDVSVLEVGDGVFEVLSTSGDTHLGGDDFDKRVVDWLAAEFKKDEGIDLLKDKQALQRLTEAAEKAKIELSSLTQTNMSLPFITATADGPKHIETTLTRAKFEELCSDLLDRVRTPVENSLRDAKLSFKDIDEVILVGGSTRIPAVQELVRKVTGKEPNVTVNPDEVVALGAAVQAGVLAGDVSDIVLLDVTPLSIGLETLGGVMTKIIPRNTTLPTSKSEVFSTAADGQTSVEINVLQGEREFVRDNKSLGSFRLDGIPPAPRGVPQIEVKFDIDANGILSVSAVDKGTGKKQDITITGASTLPKDEVDQMVQEAERFAKDDKEKRDAIDTKNQADSVVYQTEKQLKELGEKIPGEVKEKVEAKLQELKDKIGSGSTQEIKDAMAALNQEVMQIGQSLYNQPGAGGPGAGPSPGGEGASSGDSSSSKGGDGDDVIDADFTDSQ
As to B3, the binding result with AtDjA24 is recorded as “binds”.

B4: ARC6_(68-614) (domain or fragment, UniProt Q9FIG9 68-614)
chain: ATLVSPPPSIDRPERHVPIPIDFYQVLGAQTHFLTDGIRRAFEARVSKPPQFGFSDDALISRRQILQAACETLSNPRSRREYNEGLLDDEEATVITDVPWDKVPGALCVLQEGGETEIVLRVGEALLKERLPKSFKQDVVLVMALAFLDVSRDAMALDPPDFITGYEFVEEALKLLQEEGASSLAPDLRAQIDETLEEITPRYVLELLGLPLGDDYAAKRLNGLSGVRNILWSVGGGGASALVGGLTREKFMNEAFLRMTAAEQVDLFVATPSNIPAESFEVYEVALALVAQAFIGKKPHLLQDADKQFQQLQQAKVMAMEIPAMLYDTRNNWEIDFGLERGLCALLIGKVDECRMWLGLDSEDSQYRNPAIVEFVLENSNRDDNDDLPGLCKLLETWLAGVVFPRFRDTKDKKFKLGDYYDDPMVLSYLERVEVVQGSPLAAAAAMARIGAEHVKASAMQALQKVFPSRYTDRNSAEPKDVQETVFSVDPVGNNVGRDGEPGVFIAEAVRPSENFETNDYAIRAGVSESSVDETTVEMSVADMLKE
Consider B4, for which the results for the binding result in assay [6] and in assay [7] were “binds” and “no binding”, respectively.
